PubChem BioAssay AID1259308, NCATS | 2017

Test: 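Candidate targets for better recombinant protein yield in mammalian cells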 (primary screen)
Cells: human HEK293 embryonic kidney cells stably expressing firefly luciferase (HEK-CMV-Luc2-Hygro)
Reagent: single siRNA against human genes, 0.8 pmol siRNA per well
Duration: 72 h
Measurement: 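Luciferase light (ONE-Glo) measured on one replicate plate set and viability (CellTiter-Glo) on the other, scaled to a negative control siRNA, with robust z-scores and luciferase per cell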
Direction: total luciferase, z-score and total luciferase, % of control: higher = more reporter protein produced
Call rule: 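Active when the median/MAD z-score for overall luciferase is greater than 3; a gene was taken forward for validation with new siRNAs if at least two of its three siRNAs passed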
Meaning of the calls: active = raised luciferase; inactive = no rise
Here is a random part of about 59,000 deposited reagents. Over the whole deposit, about 1,510 (2.6%) were called active. 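Calls use total luciferase alone and ignore viability, so some active siRNAs may act by altering cell number.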 Entries without a mark were called inactive. Reagents against one gene are numbered here. Further read-outs or replicates are left out here.

gene knocked down	reagent no.	total luciferase, z-score	total luciferase, % of control
COL21A1	1	-1.5	52
COL21A1	2	-1.24	57.3
COL21A1	3	-0.694	68.1
PHF8	1	0.751	96.8
PHF8	2	0.139	84.6
PHF8	3	1.89	119
BCRP3	1	0.0855	83.6
BCRP3	2	-0.42	73.5
BCRP3	3	-2.95	23.3
EIF4EBP2	1	-0.129	79.3
EIF4EBP2	2	0.951	101
EIF4EBP2	3	-0.251	76.9
PSAPL1	1	0.792	97.6
PSAPL1	2	0.223	86.3
PSAPL1	3	0.249	86.8
KCTD11	1	-0.288	76.2
KCTD11	2	-0.449	73
KCTD11	3	-2.26	37
PPOX	1	0.902	99.8
PPOX	2	-0.359	74.7
PPOX	3	-0.0681	80.5
GAS2L1	1	-0.229	77.3
GAS2L1	2	-0.573	70.5
GAS2L1	3	0.391	89.7
TTC36	1	0.744	96.7
TTC36	2	-0.00452	81.8
TTC36	3	0.475	91.3
BOP1	1	1.6	114
BOP1	2	-1.14	59.1
BOP1	3	-0.698	68
NAP1L3	1	-1.35	55
NAP1L3	2	-2.33	35.5
NAP1L3	3	-0.601	69.9
STX5	1	-1.2	58
STX5	2	0.0745	83.4
STX5	3	0.954	101
UQCRHP2	1	1.46	111
UQCRHP2	2	0.519	92.2
UQCRHP2	3	-0.601	69.9
OTOP3	1	0.337	88.6
OTOP3	2	-0.751	66.9
OTOP3	3	1.07	103
KANK2	1	-0.269	76.5
KANK2	2	-0.0706	80.5
KANK2	3	1.63	114
GPBP1L1	1	-0.364	74.6
GPBP1L1	2	0.897	99.7
GPBP1L1	3	0.488	91.6
TRAPPC14	1	-0.134	79.2
TRAPPC14	2	-0.304	75.8
TRAPPC14	3	1.24	107
STX1B	1	-0.839	65.2
STX1B	2	1.79	117
STX1B	3	1.17	105
LUM	1	-0.827	65.4
LUM	2	-0.286	76.2
LUM	3	1.01	102

Targets listed so far whose target name starts with B or b:
gene knocked down	reagent no.	total luciferase, z-score	total luciferase, % of control
BCRP3	1	0.0855	83.6
BCRP3	2	-0.42	73.5
BCRP3	3	-2.95	23.3
BOP1	1	1.6	114
BOP1	2	-1.14	59.1
BOP1	3	-0.698	68
